Laboratory results as given in the supplement of paper PMC10689618.
Several values for one entry are separate records, joined by “and”; a condition that tells them apart may be missing. Equal entries are not always repeated. The list shows a part of the results. Single values are uncertain, as repeats are few or missing.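 Labelled rat cortical synaptosomes were engulfed by primary human fetal astrocytes. Engulfment equaled a red/green ratio, corrected for calcein live-cell signal and normalized to the plate median. Compounds were toxic when calcein dropped over 30%, and reduced phagocytosis when below 70% of the median above 5 µM.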

Test system: Human fetal astrocytes
Test: loss of total cells relative to no-compound high-control median (toxicity); higher = more toxic (fewer cells)
Details: 22.22 µM; 24 h

Question: With `C[C@H](CCC(=O)O)[C@H]1CC[C@H]2[C@@H]3[C@@H](O)C[C@@H]4C[C@H](O)CC[C@]4(C)[C@H]3CC[C@]12C` as the compound, how does the “loss of total cells” value read?
Answer: 36.8%

Question: `CCCCCCCCCCCCC[N+](C)(C)Cc1ccccc1` was tested. Which “loss of total cells” value did it give?
Answer: 56.4%

Question: `CCOC(=O)[C@H](CCc1ccccc1)N[C@@H](C)C(=O)N1Cc2ccccc2C[C@H]1C(=O)O` was tested. Which “loss of total cells” value did it give?
Answer: -7.2%

Question: Which “loss of total cells” value does the source give for `CN1CCC(=C2c3ccccc3Sc3ccccc32)CC1` here?
Answer: 28%

Question: `COc1cc2c(cc1OC)-c1cc3ccc(OC)c(OC)c3c[n+]1CC2` was tested. Which “loss of total cells” value did it give?
Answer: 17.4% and 2.3%

Question: How did the “loss of total cells” value turn out when `CCOC(=O)CCC(=O)O[C@H]1[C@H](O[C@@H]2[C@@H](C)[C@H](O[C@H]3C[C@@](C)(OC)[C@@H](O)[C@H](C)O3)[C@@H](C)C(=O)O[C@H](CC)[C@@](C)(O)[C@H](O)[C@@H](C)C(=O)[C@H](C)C[C@@]2(C)O)O[C@H](C)C[C@@H]1N(C)C` was run?
Answer: -22.2%

Question: How did the “loss of total cells” value turn out when `Cc1cc(=O)n(-c2ccccc2)n1C` was run?
Answer: 12.5%

Question: `NNC(=O)c1ccncc1.Nc1ccc(C(=O)O)c(O)c1` was tested. Which “loss of total cells” value did it give?
Answer: 22%

Question: `NC(=O)c1ccccc1O` was tested. Which “loss of total cells” value did it give?
Answer: 5.2%

Question: For `O=C(N/N=C/c1ccc([N+](=O)[O-])o1)c1ccc(O)cc1`, which “loss of total cells” value is on record?
Answer: 25%

Question: Which “loss of total cells” value does the source give for `Clc1ccccc1C(c1ccccc1)(c1ccccc1)n1ccnc1` [Clotrimazole] here?
Answer: 12.5%

Question: How did the “loss of total cells” value turn out when `O=C1CN2Cc3c(ccc(Cl)c3Cl)N=C2N1` was run?
Answer: -5.3%

Question: `CC(C)CCCCC(=O)N[C@@H](CCN)C(=O)N[C@@H](CN[C@@H](CCN)C(=O)N[C@H]1CCNC(=O)[C@H]([C@@H](C)O)NC(=O)[C@H](CCN)NC(=O)[C@H](CCN)NC(=O)[C@H](CC(C)C)NC(=O)[C@@H](CC(C)C)NC(=O)[C@H](CCN)NC1=O)[C@@H](C)O.CCC(C)CCCCC(=O)N[C@@H](CCN)C(=O)N[C@@H](CN[C@@H](CCN)C(=O)N[C@H]1CCNC(=O)[C@H]([C@@H](C)O)NC(=O)[C@H](CCN)NC(=O)[C@H](CCN)NC(=O)[C@H](CC(C)C)NC(=O)[C@@H](CC(C)C)NC(=O)[C@H](CCN)NC1=O)[C@@H](C)O` (stereo partly drawn) was tested. Which “loss of total cells” value did it give?
Answer: 13.7%

Question: For `CC(=O)O[C@H]1CC[C@]2(C)[C@H]3CC[C@@]4(C)[C@H](c5ccoc5)OC(=O)[C@H]5O[C@]54[C@]3(C)[C@H](OC(C)=O)C[C@H]2C1(C)C` [3beta-ACETOXYDEOXODIHYDROGEDUNIN], which “loss of total cells” value is on record?
Answer: 4.1%

Question: How did the “loss of total cells” value turn out when `C#C[C@]1(OC(C)=O)CC[C@H]2[C@@H]3CCC4=CC(=O)CC[C@@H]4[C@H]3CC[C@@]21C` was run?
Answer: -11.2%

Question: `Cc1c(Nc2ncccc2C(=O)O)cccc1C(F)(F)F` was tested. Which “loss of total cells” value did it give?
Answer: -0.9%

Question: For `CNCCc1ccccn1`, which “loss of total cells” value is on record?
Answer: -18.5%

Question: `COc1cc(C(=O)NCCCCCC(=O)O)cc(OC)c1OC` was tested. Which “loss of total cells” value did it give?
Answer: 0.9%

Question: Which “loss of total cells” value does the source give for `C[C@H]1O[C@@H](O[C@H]2[C@@H](O)C[C@H](O[C@H]3[C@@H](O)C[C@H](O[C@H]4CC[C@@]5(C)[C@H](CC[C@@H]6[C@@H]5CC[C@]5(C)[C@@H](C7=CC(=O)OC7)CC[C@]65O)C4)O[C@@H]3C)O[C@@H]2C)C[C@H](O)[C@@H]1O` here?
Answer: 53.8%

Question: `C=C1C[C@]23C[C@@]1(O)CC[C@H]2[C@@]12C=C[C@H](O)[C@@](C)(C(=O)O1)[C@H]2[C@@H]3C(=O)O` was tested. Which “loss of total cells” value did it give?
Answer: 1.1%

Question: Which “loss of total cells” value does the source give for `COc1cc(-c2cc(=O)c3c(O)c(OC)c(OC)c(OC)c3o2)cc(OC)c1OC` here?
Answer: 3.7%

Test system: Human fetal astrocytes
Test: synaptosome phagocytosis (pHrodo/calcein intensity ratio) relative to plate median of data wells; higher = more phagocytosis
Details: 1.39 µM; 24 h

Question: With `C[C@@H]1C[C@H]2[C@@H]3C[C@H](F)C4=CC(=O)C=C[C@]4(C)[C@@]3(F)[C@@H](O)C[C@]2(C)[C@@]1(O)C(=O)CO` as the compound, how does the synaptosome phagocytosis read?
Answer: 138%

Question: `Nc1[nH]cnc2ncnc1-2` was tested. Which synaptosome phagocytosis did it give?
Answer: 109%

Question: `COc1ccc2c(c1)OC[C@@H](Cc1ccc(OC)c(OC)c1)[C@H]2O` was tested. Which synaptosome phagocytosis did it give?
Answer: 104%

Question: `C[C@H]1[C@H](NC(=O)/C(=N\OC(C)(C)C(=O)O)c2csc(N)n2)C(=O)N1S(=O)(=O)O` was tested. Which synaptosome phagocytosis did it give?
Answer: 88% and 82.9%

Question: `O=C1N=C(O)NC1(c1ccccc1)c1ccccc1` was tested. Which synaptosome phagocytosis did it give?
Answer: 101%

Question: With `CC[C@H](C)C(=O)O[C@H]1C[C@H](O)C=C2C=C[C@H](C)[C@H](CC[C@@H](O)C[C@@H](O)CC(=O)O)[C@H]21` as the compound, how does the synaptosome phagocytosis read?
Answer: 94.3%

Question: `CO/N=C(\C(=O)N[C@@H]1C(=O)N2C(C(=O)O)=C(COC(C)=O)CS[C@H]12)c1csc(N)n1` was tested. Which synaptosome phagocytosis did it give?
Answer: 82%

Question: Which synaptosome phagocytosis does the source give for `CC1(C)[C@@H](O)CC[C@]2(C)[C@H]3C(=O)C=C4[C@@H]5C[C@@](C)(C(=O)O)CC[C@]5(C)CC[C@@]4(C)[C@]3(C)CC[C@@H]12` here?
Answer: 108%

Question: Which synaptosome phagocytosis does the source give for `Nc1c2ccccc2nc2ccccc12` here?
Answer: 116%

Question: Which synaptosome phagocytosis does the source give for `O=C(CCBr)N1CCN(C(=O)CCBr)CC1` here?
Answer: 123%

Question: How did the synaptosome phagocytosis turn out when `CCC(CCC(C)C1CCC2C3CCC4CC(O)CCC4(C)C3CCC12C)C(C)C` (stereo not drawn) was run?
Answer: 128%

Question: `OCC(S)CS` (stereo not drawn) was tested. Which synaptosome phagocytosis did it give?
Answer: 132%

Question: With `O=C(O)CCCC[C@@H]1SC[C@@H]2NC(=O)N[C@@H]21` as the compound, how does the synaptosome phagocytosis read?
Answer: 101%

Question: For `CC(=O)c1cc2ccccc2oc1=O`, which synaptosome phagocytosis is on record?
Answer: 123%

Question: `CCCCCC(=O)O[C@]1(C(C)=O)CC[C@H]2[C@@H]3CCC4=CC(=O)CC[C@]4(C)[C@H]3CC[C@@]21C` was tested. Which synaptosome phagocytosis did it give?
Answer: 124%

Question: With `CNCc1ccccc1` as the compound, how does the synaptosome phagocytosis read?
Answer: 124%

Question: How did the synaptosome phagocytosis turn out when `C[C@H](CCC(=O)O)[C@H]1CC[C@H]2[C@@H]3[C@@H](O)C[C@@H]4C[C@H](O)CC[C@]4(C)[C@H]3CC[C@]12C` was run?
Answer: 72.1%

Question: Which synaptosome phagocytosis does the source give for `CCCCCCCCCCCCC[N+](C)(C)Cc1ccccc1` here?
Answer: 104%

Question: Which synaptosome phagocytosis does the source give for `CCOC(=O)[C@H](CCc1ccccc1)N[C@@H](C)C(=O)N1Cc2ccccc2C[C@H]1C(=O)O` here?
Answer: 109%

Question: `CN1CCC(=C2c3ccccc3Sc3ccccc32)CC1` was tested. Which synaptosome phagocytosis did it give?
Answer: 97.3%

Question: For `COc1cc2c(cc1OC)-c1cc3ccc(OC)c(OC)c3c[n+]1CC2`, which synaptosome phagocytosis is on record?
Answer: 123% and 111%

Question: With `CCOC(=O)CCC(=O)O[C@H]1[C@H](O[C@@H]2[C@@H](C)[C@H](O[C@H]3C[C@@](C)(OC)[C@@H](O)[C@H](C)O3)[C@@H](C)C(=O)O[C@H](CC)[C@@](C)(O)[C@H](O)[C@@H](C)C(=O)[C@H](C)C[C@@]2(C)O)O[C@H](C)C[C@@H]1N(C)C` as the compound, how does the synaptosome phagocytosis read?
Answer: 92.9%

Question: How did the synaptosome phagocytosis turn out when `Cc1cc(=O)n(-c2ccccc2)n1C` was run?
Answer: 118%

Question: `NNC(=O)c1ccncc1.Nc1ccc(C(=O)O)c(O)c1` was tested. Which synaptosome phagocytosis did it give?
Answer: 132%

Question: `NC(=O)c1ccccc1O` was tested. Which synaptosome phagocytosis did it give?
Answer: 105%

Question: Which synaptosome phagocytosis does the source give for `O=C(N/N=C/c1ccc([N+](=O)[O-])o1)c1ccc(O)cc1` here?
Answer: 76%

Question: With `Clc1ccccc1C(c1ccccc1)(c1ccccc1)n1ccnc1` [Clotrimazole] as the compound, how does the synaptosome phagocytosis read?
Answer: 118%

Question: `O=C1CN2Cc3c(ccc(Cl)c3Cl)N=C2N1` was tested. Which synaptosome phagocytosis did it give?
Answer: 107%

Question: `CC(C)CCCCC(=O)N[C@@H](CCN)C(=O)N[C@@H](CN[C@@H](CCN)C(=O)N[C@H]1CCNC(=O)[C@H]([C@@H](C)O)NC(=O)[C@H](CCN)NC(=O)[C@H](CCN)NC(=O)[C@H](CC(C)C)NC(=O)[C@@H](CC(C)C)NC(=O)[C@H](CCN)NC1=O)[C@@H](C)O.CCC(C)CCCCC(=O)N[C@@H](CCN)C(=O)N[C@@H](CN[C@@H](CCN)C(=O)N[C@H]1CCNC(=O)[C@H]([C@@H](C)O)NC(=O)[C@H](CCN)NC(=O)[C@H](CCN)NC(=O)[C@H](CC(C)C)NC(=O)[C@@H](CC(C)C)NC(=O)[C@H](CCN)NC1=O)[C@@H](C)O` (stereo partly drawn) was tested. Which synaptosome phagocytosis did it give?
Answer: 104%

Question: `CC(=O)O[C@H]1CC[C@]2(C)[C@H]3CC[C@@]4(C)[C@H](c5ccoc5)OC(=O)[C@H]5O[C@]54[C@]3(C)[C@H](OC(C)=O)C[C@H]2C1(C)C` [3beta-ACETOXYDEOXODIHYDROGEDUNIN] was tested. Which synaptosome phagocytosis did it give?
Answer: 109%

Question: With `C#C[C@]1(OC(C)=O)CC[C@H]2[C@@H]3CCC4=CC(=O)CC[C@@H]4[C@H]3CC[C@@]21C` as the compound, how does the synaptosome phagocytosis read?
Answer: 84.8%

Question: How did the synaptosome phagocytosis turn out when `Cc1c(Nc2ncccc2C(=O)O)cccc1C(F)(F)F` was run?
Answer: 85.3%

Question: With `CNCCc1ccccn1` as the compound, how does the synaptosome phagocytosis read?
Answer: 93.8%

Question: How did the synaptosome phagocytosis turn out when `COc1cc(C(=O)NCCCCCC(=O)O)cc(OC)c1OC` was run?
Answer: 144%

Question: How did the synaptosome phagocytosis turn out when `C[C@H]1O[C@@H](O[C@H]2[C@@H](O)C[C@H](O[C@H]3[C@@H](O)C[C@H](O[C@H]4CC[C@@]5(C)[C@H](CC[C@@H]6[C@@H]5CC[C@]5(C)[C@@H](C7=CC(=O)OC7)CC[C@]65O)C4)O[C@@H]3C)O[C@@H]2C)C[C@H](O)[C@@H]1O` was run?
Answer: 73.1%

Question: With `C=C1C[C@]23C[C@@]1(O)CC[C@H]2[C@@]12C=C[C@H](O)[C@@](C)(C(=O)O1)[C@H]2[C@@H]3C(=O)O` as the compound, how does the synaptosome phagocytosis read?
Answer: 121%

Question: How did the synaptosome phagocytosis turn out when `COc1cc(-c2cc(=O)c3c(O)c(OC)c(OC)c(OC)c3o2)cc(OC)c1OC` was run?
Answer: 94.3%
